Results on 58 compounds are retold here after the supplement of paper PMC12578635.

Some of the results follow. Rule as the data show it: active = 150% or more and inactive = the rest. Single values are uncertain, as repeats are few or missing.

The test system of this test is Staphylococcus aureus JE2-lux inside RAW 264.7 macrophages. Put plainly: intracellular bacterial bioluminescence relative to DMSO vehicle; higher = higher intracellular bacterial metabolic activity. The conditions noted are these: 10 µM; treatment time 4 h; gentamicin 50 µg/ml.
`COc1cccc(NC(=O)CSc2nc(-c3ccccc3)nc3c2Cc2cccc(OC)c2O3)c1`: the intracellular bacterial bioluminescence is inactive: 105%.
The result for `NC(=O)c1ccc(NC(=O)C(=O)Nc2cccc(N3CCCC3=O)c2)cc1` reads inactive: 124%.
The result for `CCOC(=O)c1oc2ccccc2c1NC(=O)Cc1cccs1` reads inactive: 92.6%.
The result for `N#C/C(=C\c1ccc(-c2ccc([N+](=O)[O-])cc2)o1)c1nc(-c2cccs2)cs1` reads inactive: 120%; that for `Cc1nnc2ccc(-n3ncc4c3NC(=O)CC4c3ccccc3OC(C)C)nn12` (stereo not drawn), inactive: 88.3%; that for `C[C@@H]1CN(Cc2ccccc2F)CCN1CC(=O)N1CC(=O)Nc2ccccc21`, inactive: 87%.
As for `CCOc1ccc2c(c1)c(=O)c(C(=O)c1ccccc1)cn2CC(=O)Nc1cccc(OC)c1`, the intracellular bacterial bioluminescence is inactive: 88.4%.
`NC(=O)COC(=O)c1cccc2c1-c1ccccc1C2=O`: the intracellular bacterial bioluminescence is inactive: 111%.
For `O=C(Nc1nnc(-c2ccc(Br)cc2)s1)C1CC1`, the intracellular bacterial bioluminescence is inactive: 102%.
As to `O=C(CCn1cnc(-c2ccccc2)c1-c1ccccc1)N/N=C/c1ccco1`, the intracellular bacterial bioluminescence was inactive: 86.4%.
The result for `COc1ccc(N2CCN(Cc3nc4c(c(=O)n(C)c(=O)n4C)n3CC(C)=O)CC2)cc1` reads inactive: 108%.
`Cc1cccc(-c2nc3n(CC(=O)N(CCO)Cc4ccccc4)c(C)cc(=O)n3n2)c1`: the intracellular bacterial bioluminescence is inactive: 97.7%.
The result for `CCCCOC(=O)c1ccc(Nc2ncnc3c2cnn3-c2ccccc2)cc1` reads inactive: 83.8%; that for `CC(=O)Oc1ccccc1C(=O)Oc1ccc(/C=N\n2cnnc2)cc1`, inactive: 112%; that for `Cc1ccc(CN2C3CCCC2CC(NC(=O)NCc2ccccc2)C3)cc1` (stereo not drawn), inactive: 98%.
The result for `COc1ccc2c(c1)s/c(=N\C(=O)CSCC(=O)N1CCc3ccccc31)n2C` reads inactive: 87.3%.
For the compound `O=C(N/N=C/c1c(F)cccc1Cl)c1n[nH]c2c1CCC2`, the intracellular bacterial bioluminescence is inactive: 100%.
Turning to `COc1ccc2nc(Nc3nc4ccc(S(C)(=O)=O)cc4s3)sc2c1`, the intracellular bacterial bioluminescence is inactive: 95.3%.
The result for `COc1ccc(S(=O)(=O)NC(=N)NCCc2c[nH]c3ccc(F)cc23)cc1` reads inactive: 104%; that for `COc1cc(Nc2cc(C)nc3ncnn23)cc(OC)c1`, inactive: 80.9%.
The result for `O=C(CSc1nc(-c2ccccc2)no1)Nc1ccccc1Cl` reads inactive: 87.8%; that for `CC1CCCN(c2ccc3cccc(OCC(=O)Nc4ccc5c(c4)OCO5)c3n2)C1` (stereo not drawn), inactive: 95%; that for `Cc1cc(NC(=O)COc2ccc3ccccc3c2)nc2c1c(=O)oc1ccccc12`, inactive: 79.6%.
On to `CCOc1ccc(CCNC(=O)c2nnn(CC(=O)Nc3cc(C)cc(C)c3)c2N)cc1OCC`, for which the intracellular bacterial bioluminescence is inactive: 72.4%.
As for `Cc1cc(O)nc(SCc2nc3ncccn3c2Br)n1`, the intracellular bacterial bioluminescence was inactive: 88.2%.
The result for `Cc1cc(C)c2[nH]c(=O)c(CN(C(=O)Nc3ccccc3C)C3CC3)cc2c1` reads active: 194%; that for `COc1cccc(CN2N=NC3C(=O)N(c4ccc(OC)c(OC)c4)C(=O)C32)c1` (stereo not drawn), inactive: 91.6%.
As to `Cc1csc(-c2csc(S(=O)(=O)N3CCc4ccccc4C3)c2)n1`, the intracellular bacterial bioluminescence is inactive: 108%.
Regarding `Cc1ccc(NC(=O)CSc2nc3c(oc4ccccc43)c(=O)[nH]2)cc1C`, the intracellular bacterial bioluminescence is inactive: 90.4%.
The result for `Cc1cn(C2OC(COC(=O)c3ccccc3)C(O)C2O)c(=O)[nH]c1=O` (stereo not drawn) reads inactive: 124%.
The result for `CCOC(=O)c1ccc2cc3c(cc2c1O)OCCO3` reads inactive: 107%; that for `Cc1ncc(C(=O)NC(c2ccccc2)c2cccnc2)c(C)n1` (stereo not drawn), inactive: 119%; that for `COc1ccc(S(=O)(=O)c2nnn3c2nc(Nc2cccc(C)c2)c2ccccc23)cc1`, inactive: 94.6%.
The result for `COc1ccc(NC(=O)c2sc(C)nc2-c2ccccc2)cc1` reads inactive: 99.1%; that for `COc1ccc(Cl)cc1Nc1nnc(C)c(=O)[nH]1`, inactive: 137%.
On to `Cc1ccc2nc3c(cc(C(=O)NCC4CCCO4)c(=N)n3CCCn3ccnc3)c(=O)n2c1` (stereo not drawn), for which the intracellular bacterial bioluminescence is inactive: 102%.
The result for `CC(=O)c1cccc(Nc2cc(C(F)(F)F)nc3ncnn23)c1` reads active: 157%; that for `CC(=O)NC1(c2ccc(F)cc2)CCN(Cc2ccc3cccc(Cl)c3n2)CC1`, inactive: 106%.
With `CCc1nc(OCC(=O)NCc2ccc(OC(C)C)cc2)c2c(C)c(C)oc2n1`, the intracellular bacterial bioluminescence is inactive: 78.5%.
The result for `O=C1C=C/C(=N\Nc2cc3c(cc2[N+](=O)[O-])OCCO3)c2ccccc21` reads inactive: 83%; that for `CCN1C(=O)c2cccc3c(NC(=O)c4ccc(Cl)s4)ccc1c23`, inactive: 95.3%.
The result for `Cc1nccn1CC(=O)N/N=C/c1ccc(O)c(O)c1` reads inactive: 103%; that for `COc1ccc2[nH]cc(CCNC(=O)CN3C(=O)S/C(=C\c4ccc(F)cc4)C3=O)c2c1`, inactive: 58.2%.
Take `CC(=O)c1cccc(NC(=O)c2cc3cccnc3n(C)c2=O)c1`: the intracellular bacterial bioluminescence was inactive: 31.2%.
The result for `Cc1ccc(C)c(NC(=O)c2ccc(S(=O)(=O)N3CCCCC3C)cc2)c1` (stereo not drawn) reads inactive: 92.6%.
The result for `CCOC(=O)c1cnc(Nc2ccc(OC)cc2OC)c2ccccc12` reads inactive: 100%; that for `CCn1c(CN2CCNCC2)nc2cc(C(=O)N(C)C)ccc21`, inactive: 95.9%; that for `CCS(=O)(=O)c1cccc(C(=O)Nc2nc3c(C)ccc(Cl)c3s2)c1`, inactive: 125%.
Take `CN1C(=O)CC(Sc2ncccc2C(=O)O)C1=O` (stereo not drawn): the intracellular bacterial bioluminescence was inactive: 135%.
The result for `O=C(Cn1cnc2c(nnn2-c2cccc(F)c2)c1=O)N1CCN(c2ccccc2)CC1` reads inactive: 124%.
Take `Cc1ccc(SCCCC(=O)Nc2cccc3c2C(=O)NC3=O)cc1`: the intracellular bacterial bioluminescence is inactive: 89.2%.
The result for `COc1ccc(-c2csc(NC(=O)CSc3nncn3N)n2)cc1` reads inactive: 98.3%; that for `O=C(NC1CCCCC1)C(c1ccc(O)cc1)N(C(=O)c1cnccn1)c1cccc(F)c1` (stereo not drawn), inactive: 106%; that for `CCc1ccc2c(c1)cc(CN(C(=S)Nc1cccc(C)c1C)C1CC1)c1nnnn12`, inactive: 97%.
Take `COc1cccc(-c2cc(C(F)(F)F)n3nc(C(=O)N4CCCC4c4cc(C)on4)cc3n2)c1` (stereo not drawn): the intracellular bacterial bioluminescence is inactive: 86.4%.
The result for `COc1ccccc1NC(=O)CSc1nnc(-n2nc(C)cc2C)c2ccccc12` reads inactive: 38.9%; that for `CCc1cc2c(N3CCCC(C(=O)Nc4cc(C)ccc4OC)C3)ncnc2s1` (stereo not drawn), inactive: 58.7%.
The result for `Cc1ccc(-n2nnc3c(=O)n(CC(=O)N4CCc5ccccc54)cnc32)cc1C` reads inactive: 138%.
